Experimental data taken from EP0326579B1, “IMPROVEMENT OF THE BIOCOMPATIBILITY OF SOLID SURFACES” (BIO-METRIC SYSTEMS, INC., priority 1986, dated 1988).

Assay: Radiolabeled [3H] biocompatible agents photocoupled to plastic surfaces, counted by liquid scintillation spectrometry
Excerpt: 1. Plastic Surfaces. Various cell factors were coupled to polymeric surfaces tested in vitro to determine the effect of these factors upon cell attachment and overgrowth. The polymeric surfaces included polyvinyl chloride (PVC), polyethylene (PE), polypropylene (PP) and polytetrafluoroethylene (PTFE) GORE-TEX (6mm reinforced expanded PTFE, a trademarked product of W. L. Gore and Associates, Inc.). Commercial tubing tested included polyester (Dacron, D, 6mm straight knitted dacron velour, a trademarked product of Dupont), silicone elastomer, (Silastic ^R, S, 0.03 I.D., tubing, a trademarked product of Dow Corning) and polyurethane. Polystyrene plates were used as controls. 2. Preparation of the Chemical Linking Moiety. The chemical linking moiety used in these examples were the N-oxysuccinimide (NOS) esters of 4-azido-2-nitrophenyl epsilon amino caproic acid (ANP-EACA), 4-azido-2-nitro-phenyl amino undecanoic acid (ANP-AUDA) and benzoylbenzoic acid (BBA). ANP-EAC-NOS and ANP-AUD-NOS were prepared by the method described in P. Guire, D. Fliger and J. Hodgson, "Photochemical Coupling of Enzymes to Mammalian Cells", Pharmacological Research Communications, Vol. 9, pp 131-141 (1977), incorporated herein by reference. Briefly, fluoro-2-nitro-4-azido benzene was reacted with either epsilon amino caproic acid or amino undecanoic acid to substitute the relatively poorly reactive fluoride with an amino alkyl carboxy group. The carboxy group was then esterified, by carbodiimide activation with N-hydroxy succinimide to yield the N-oxysuccinimide carboxylic ester. The NOS ester of benzoylbenzoic acid was prepared by esterifying the carboxy group by carbodiimide activation with N-hydroxy succinimide. When ANP-EAC-NOS or ANP-AUD-NOS is the chemical linking moiety used, the ANP group is the photochemically reactive group represented by the letter "A" in the A-X-B general formula discussed above. The NOS group is the different reactive group represented by the letter "B" in the formula. The EAC or AUD group acts as the spacer between the two reactive groups and is represented by the X in the general formula. When BBA-NOS is the chemical linking moiety, the benzoylbenzoic group is the photochemically reactive group represented by the "A" in the general formula and the NOS group is the different reactive group represented by the letter "B". The group represented by X is the carbon connecting the two reactive groups. 3. Covalent Bonding of Growth Factors to the Chemical Linking Moieties. The biocompatible agents fibronectin, laminin, collagen, endothelial growth factor, and human serum albumin were tested for their abilities to promote endothelial cell attachment and overgrowth on synthetic biomaterials. These agents were coupled to the N-oxysuccinimide (NOS) esters of 4-azido-2-nitrophenyl epsilon amino caproic acid (ANP-EACA), 4-azido-2-nitrophenyl-undecanoic amino acid (ANP-AUDA) or benzoylbenzoic acid (BBA) as follows. As used herein "photolabeled" refers to a biocompatible agent that has been coupled to a chemical linking moiety by the different reactive group and that has a photochemically reactive group. • A. Covalent Binding of Fibronectin and Laminin to the Linking Moiety. Human fibronectin (University of Wisconsin Medical School) and mouse laminin (obtained from Bethesda Research Lab.) were separately dissolved at 1 mg/ml concentrations in 0.1M borate, pH 9.0. A solution of ANP-EAC-NOS in dry dimethylformamide ("DMF"), ANP-AUD-NOS in dry DMF, or BBA-NOS in dry dioxane was slowly added to the fibronectin or laminin solution in equamolar amounts to the concentration of protein epsilon amino groups (lysine residues) by syringe drive at 4°C in the dark over 16 hours. Then the mixture was stirred 4 hours in the cold. The fibronectin or laminin solution was centrifuged to remove insoluble material then applied to a Sephadex G-75 column to remove uncoupled photoreagent. […]

In the case of “ANP-EAC-COL: Human placenta Type IV collagen coupled to ANP-EAC-NOS (photolabeled collagen)”, the “% Coupling Efficiency” value (Solid surface PVC) is reported as 14.0%, the “Ng Growth Factor Photocoupled/cm²” value (Solid surface PVC) is reported as 374 Ng/cm² and the “% Coupling Efficiency” value (Solid surface Polyurethane) is reported as 81.26%. The “Ng Growth Factor Photocoupled/cm²” value (Solid surface Polyurethane) was 2173.6 Ng/cm².

For “BBA-COL: Human placenta Type IV collagen coupled to the NOS ester of benzoylbenzoic acid”, the “% Coupling Efficiency” value (Solid surface PVC) was 17.9%, the “Ng Growth Factor Photocoupled/cm²” value (Solid surface PVC) was 197.56 Ng/cm² and the “% Coupling Efficiency” value (Solid surface Polyurethane) was 83.3%. The “Ng Growth Factor Photocoupled/cm²” value (Solid surface Polyurethane) was 920.3 Ng/cm².
